# PubChem BioAssay AID1224830 – NIAID | 2016
# Aim: 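Host factors that control LPS-induced TNF expression in human macrophages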 (primary screen)
# Cells: human THP-1 monocytic leukaemia cells, TNF dual-luciferase reporter clone, PMA-differentiated to macrophage-like cells
# Reagents: siRNA pool against human genes, 50 nM
# Timing: LPS for 4 h, given about 3 days after siRNA transfection
# Treatment: bacterial LPS (TLR4 ligand), 10 ng/ml
# Detection: 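Ratio of firefly to renilla light, scaled to the plate median and expressed as a robust z-score per replicate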
# Scale: TNF reporter robust z-score: higher = stronger TNF reporter response to LPS
# Active means: 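a well is active when its z-score exceeds 2.8 or falls below -1.5; control wells carry no call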
# Shown is one part, drawn at random, of about 18,000 reagents tested. About 2,900 of them (16%) count as active. 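Calls are made per well; low scores hint the gene aids the LPS response, high scores that it dampens it.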 Repeated entries: four replicate wells of each siRNA pool. Reagent sequences are not shown.
Gene,TNF reporter robust z-score,call
SLC23A3 (GeneID 151295),-0.91,inactive
SLC23A3 (GeneID 151295),-0.61,inactive
SLC23A3 (GeneID 151295),-0.32,inactive
SLC23A3 (GeneID 151295),0.41,inactive
GLT8D2 (GeneID 83468),-0.79,inactive
GLT8D2 (GeneID 83468),0.48,inactive
GLT8D2 (GeneID 83468),-0.31,inactive
GLT8D2 (GeneID 83468),0.16,inactive
PDX1 (GeneID 3651),-0.13,inactive
PDX1 (GeneID 3651),0,inactive
PDX1 (GeneID 3651),0.02,inactive
PDX1 (GeneID 3651),0.3,inactive
TMEM9 (GeneID 252839),0.67,inactive
TMEM9 (GeneID 252839),1.36,inactive
TMEM9 (GeneID 252839),0.87,inactive
TMEM9 (GeneID 252839),0.86,inactive
TMEM81 (GeneID 388730),0.73,inactive
TMEM81 (GeneID 388730),-0.24,inactive
TMEM81 (GeneID 388730),0.33,inactive
TMEM81 (GeneID 388730),-1.05,inactive
DEFA4 (GeneID 1669),-0.12,inactive
DEFA4 (GeneID 1669),0.65,inactive
DEFA4 (GeneID 1669),-0.16,inactive
DEFA4 (GeneID 1669),0.82,inactive
ADAM10 (GeneID 102),0.85,inactive
ADAM10 (GeneID 102),2.52,inactive
ADAM10 (GeneID 102),0.29,inactive
ADAM10 (GeneID 102),0.56,inactive
TICAM1 (GeneID 148022),-0.8,inactive
TICAM1 (GeneID 148022),-0.56,inactive
TICAM1 (GeneID 148022),-1.37,inactive
TICAM1 (GeneID 148022),-1.14,inactive
GLUL (GeneID 2752),1.24,inactive
GLUL (GeneID 2752),1.43,inactive
GLUL (GeneID 2752),0.31,inactive
GLUL (GeneID 2752),1.34,inactive
TRMT2A (GeneID 27037),1.01,inactive
TRMT2A (GeneID 27037),0.88,inactive
TRMT2A (GeneID 27037),1.02,inactive
TRMT2A (GeneID 27037),0.65,inactive
RMND1 (GeneID 55005),0.41,inactive
RMND1 (GeneID 55005),-0.6,inactive
RMND1 (GeneID 55005),-1.14,inactive
RMND1 (GeneID 55005),0.02,inactive
NIPSNAP1 (GeneID 8508),0.61,inactive
NIPSNAP1 (GeneID 8508),-0.35,inactive
NIPSNAP1 (GeneID 8508),-0.28,inactive
NIPSNAP1 (GeneID 8508),1.15,inactive
TTC39B (GeneID 158219),-0.17,inactive
TTC39B (GeneID 158219),1.36,inactive
TTC39B (GeneID 158219),-0.15,inactive
TTC39B (GeneID 158219),1.37,inactive
ABHD1 (GeneID 84696),-0.91,inactive
ABHD1 (GeneID 84696),-1.27,inactive
ABHD1 (GeneID 84696),-1.67,active
ABHD1 (GeneID 84696),-0.22,inactive
RIT2 (GeneID 6014),0.42,inactive
RIT2 (GeneID 6014),0.02,inactive
RIT2 (GeneID 6014),0.93,inactive
RIT2 (GeneID 6014),0.43,inactive
PRKAR1A (GeneID 5573),0.92,inactive
PRKAR1A (GeneID 5573),0.47,inactive
PRKAR1A (GeneID 5573),0.91,inactive
PRKAR1A (GeneID 5573),0.16,inactive
SPACA4 (GeneID 171169),0.56,inactive
SPACA4 (GeneID 171169),-0.14,inactive
SPACA4 (GeneID 171169),-0.75,inactive
SPACA4 (GeneID 171169),0.01,inactive
OSBPL8 (GeneID 114882),0.13,inactive
OSBPL8 (GeneID 114882),0.49,inactive
OSBPL8 (GeneID 114882),1.5,inactive
OSBPL8 (GeneID 114882),0.33,inactive
GATB (GeneID 5188),-1.02,inactive
GATB (GeneID 5188),0.01,inactive
GATB (GeneID 5188),0.04,inactive
GATB (GeneID 5188),-0.48,inactive
GATC (GeneID 283459),-1.17,inactive
GATC (GeneID 283459),-0.55,inactive
GATC (GeneID 283459),-1.36,inactive
GATC (GeneID 283459),-0.67,inactive
SOCS7 (GeneID 30837),-1.02,inactive
SOCS7 (GeneID 30837),3.38,active
SOCS7 (GeneID 30837),-1.81,active
SOCS7 (GeneID 30837),-0.71,inactive
GALR1 (GeneID 2587),0.66,inactive
GALR1 (GeneID 2587),1.11,inactive
GALR1 (GeneID 2587),1.57,inactive
GALR1 (GeneID 2587),2.78,inactive
SYNE3 (GeneID 161176),0.35,inactive
SYNE3 (GeneID 161176),0.15,inactive
SYNE3 (GeneID 161176),-0.75,inactive
SYNE3 (GeneID 161176),0.39,inactive

Reagents listed above called active (3):
Gene,TNF reporter robust z-score,call
ABHD1 (GeneID 84696),-1.67,active
SOCS7 (GeneID 30837),3.38,active
SOCS7 (GeneID 30837),-1.81,active

Next reagents:
Gene,TNF reporter robust z-score,call
KCNK12 (GeneID 56660),-0.05,inactive
KCNK12 (GeneID 56660),-0.41,inactive
KCNK12 (GeneID 56660),0.43,inactive
KCNK12 (GeneID 56660),0.63,inactive
WT1 (GeneID 7490),-0.05,inactive
WT1 (GeneID 7490),-0.09,inactive
WT1 (GeneID 7490),0.03,inactive
WT1 (GeneID 7490),0.61,inactive
DRC9 (GeneID 84223),0.21,inactive
DRC9 (GeneID 84223),-0.25,inactive
DRC9 (GeneID 84223),0.24,inactive
DRC9 (GeneID 84223),-0.13,inactive
SRGN (GeneID 5552),0.65,inactive
SRGN (GeneID 5552),1.12,inactive
SRGN (GeneID 5552),0.37,inactive
SRGN (GeneID 5552),0.03,inactive
ECHS1 (GeneID 1892),-0.19,inactive
ECHS1 (GeneID 1892),0.22,inactive
ECHS1 (GeneID 1892),0.07,inactive
ECHS1 (GeneID 1892),1.57,inactive
OR4D9 (GeneID 390199),1.39,inactive
OR4D9 (GeneID 390199),0.47,inactive
OR4D9 (GeneID 390199),0.76,inactive
OR4D9 (GeneID 390199),1.89,inactive
ARHGEF37 (GeneID 389337),-0.83,inactive
ARHGEF37 (GeneID 389337),-0.17,inactive
ARHGEF37 (GeneID 389337),-0.34,inactive
ARHGEF37 (GeneID 389337),0.37,inactive
CRYGS (GeneID 1427),1.19,inactive
CRYGS (GeneID 1427),0.14,inactive
CRYGS (GeneID 1427),0.07,inactive
CRYGS (GeneID 1427),0.94,inactive
DBT (GeneID 1629),-1.32,inactive
DBT (GeneID 1629),-1.2,inactive
DBT (GeneID 1629),-1.78,active
DBT (GeneID 1629),-0.15,inactive
MTG1 (GeneID 92170),0.19,inactive
MTG1 (GeneID 92170),1.13,inactive
MTG1 (GeneID 92170),-0.12,inactive
MTG1 (GeneID 92170),1.32,inactive
HLA-DOB (GeneID 3112),-0.37,inactive
HLA-DOB (GeneID 3112),0.36,inactive
HLA-DOB (GeneID 3112),0.45,inactive
HLA-DOB (GeneID 3112),-0.51,inactive
FOLR3 (GeneID 2352),0.08,inactive
FOLR3 (GeneID 2352),-1.27,inactive
FOLR3 (GeneID 2352),-0.38,inactive
FOLR3 (GeneID 2352),0.91,inactive
